{"source": "patent US20120077746", "about": "(published 2012)", "assay": "Boc solid-phase peptide synthesis; MBHA resin; HBTU/DIEA", "conditions": "whole synthesis, analytical HPLC", "data": [{"substance": "(Aib^8.35)hGLP-1(7-36)NH2", "values": [{"measurement": "final HPLC purity", "result": 98.6, "unit": "%"}]}]}
